Measurements: the supplement of paper PMC7666118
The other results are listed elsewhere or left out.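 How the source made its calls: active = dose-dependent thermal stabilisation significant by F-test of dose-response against flat model at 10% FDR; inactive = not significant.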

By UniProt entry, the sequences of proteins in these tests, tags left out. Where a name states a change or a piece, a line headed by the entry shows the natural chain unless it says otherwise.
UniProt P39687: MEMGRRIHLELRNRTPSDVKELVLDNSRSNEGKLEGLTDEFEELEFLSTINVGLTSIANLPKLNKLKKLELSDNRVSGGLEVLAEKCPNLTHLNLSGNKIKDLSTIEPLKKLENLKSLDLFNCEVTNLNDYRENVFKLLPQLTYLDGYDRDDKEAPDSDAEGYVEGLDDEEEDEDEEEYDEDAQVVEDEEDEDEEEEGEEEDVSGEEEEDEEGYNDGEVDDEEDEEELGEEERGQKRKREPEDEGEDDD
UniProt Q96HN2, whole entry: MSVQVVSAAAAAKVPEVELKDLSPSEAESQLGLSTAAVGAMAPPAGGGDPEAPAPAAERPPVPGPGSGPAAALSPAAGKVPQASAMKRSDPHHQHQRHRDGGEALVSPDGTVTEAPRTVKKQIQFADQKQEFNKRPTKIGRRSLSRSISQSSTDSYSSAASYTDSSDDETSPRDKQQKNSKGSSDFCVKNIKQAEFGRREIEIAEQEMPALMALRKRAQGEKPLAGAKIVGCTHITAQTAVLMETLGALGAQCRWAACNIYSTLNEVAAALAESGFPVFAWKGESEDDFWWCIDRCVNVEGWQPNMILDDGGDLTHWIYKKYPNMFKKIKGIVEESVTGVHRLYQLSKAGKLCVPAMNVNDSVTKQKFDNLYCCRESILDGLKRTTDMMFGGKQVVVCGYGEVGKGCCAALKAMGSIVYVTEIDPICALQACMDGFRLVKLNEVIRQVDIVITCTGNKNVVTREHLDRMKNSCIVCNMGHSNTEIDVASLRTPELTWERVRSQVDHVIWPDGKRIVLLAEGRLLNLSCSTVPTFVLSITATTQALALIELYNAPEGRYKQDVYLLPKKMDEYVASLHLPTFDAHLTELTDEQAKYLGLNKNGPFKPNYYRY
UniProt Q6P4F7: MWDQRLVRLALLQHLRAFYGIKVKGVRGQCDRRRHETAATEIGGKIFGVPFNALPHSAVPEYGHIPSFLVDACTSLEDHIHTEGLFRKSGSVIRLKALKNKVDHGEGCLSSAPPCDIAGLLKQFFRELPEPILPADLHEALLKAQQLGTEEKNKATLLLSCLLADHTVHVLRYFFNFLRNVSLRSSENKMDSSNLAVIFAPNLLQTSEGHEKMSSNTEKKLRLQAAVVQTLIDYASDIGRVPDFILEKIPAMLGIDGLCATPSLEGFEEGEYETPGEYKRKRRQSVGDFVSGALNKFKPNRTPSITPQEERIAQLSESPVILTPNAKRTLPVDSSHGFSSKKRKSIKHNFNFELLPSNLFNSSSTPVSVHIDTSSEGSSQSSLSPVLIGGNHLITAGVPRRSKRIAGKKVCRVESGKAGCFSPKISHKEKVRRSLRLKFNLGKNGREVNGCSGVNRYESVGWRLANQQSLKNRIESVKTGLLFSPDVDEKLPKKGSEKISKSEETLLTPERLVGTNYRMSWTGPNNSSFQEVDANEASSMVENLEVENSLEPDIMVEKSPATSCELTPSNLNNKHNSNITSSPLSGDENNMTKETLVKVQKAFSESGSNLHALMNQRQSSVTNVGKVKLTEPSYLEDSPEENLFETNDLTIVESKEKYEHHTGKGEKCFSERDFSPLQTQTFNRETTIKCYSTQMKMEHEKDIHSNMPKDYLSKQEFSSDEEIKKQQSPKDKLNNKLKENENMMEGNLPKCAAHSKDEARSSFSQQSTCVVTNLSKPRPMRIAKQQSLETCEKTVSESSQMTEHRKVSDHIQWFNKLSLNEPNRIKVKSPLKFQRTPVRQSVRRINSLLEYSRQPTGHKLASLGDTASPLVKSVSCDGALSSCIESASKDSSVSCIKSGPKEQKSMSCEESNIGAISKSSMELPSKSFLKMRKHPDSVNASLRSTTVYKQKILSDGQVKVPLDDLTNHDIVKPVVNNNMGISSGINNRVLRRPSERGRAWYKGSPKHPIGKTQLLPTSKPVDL
UniProt Q96P48: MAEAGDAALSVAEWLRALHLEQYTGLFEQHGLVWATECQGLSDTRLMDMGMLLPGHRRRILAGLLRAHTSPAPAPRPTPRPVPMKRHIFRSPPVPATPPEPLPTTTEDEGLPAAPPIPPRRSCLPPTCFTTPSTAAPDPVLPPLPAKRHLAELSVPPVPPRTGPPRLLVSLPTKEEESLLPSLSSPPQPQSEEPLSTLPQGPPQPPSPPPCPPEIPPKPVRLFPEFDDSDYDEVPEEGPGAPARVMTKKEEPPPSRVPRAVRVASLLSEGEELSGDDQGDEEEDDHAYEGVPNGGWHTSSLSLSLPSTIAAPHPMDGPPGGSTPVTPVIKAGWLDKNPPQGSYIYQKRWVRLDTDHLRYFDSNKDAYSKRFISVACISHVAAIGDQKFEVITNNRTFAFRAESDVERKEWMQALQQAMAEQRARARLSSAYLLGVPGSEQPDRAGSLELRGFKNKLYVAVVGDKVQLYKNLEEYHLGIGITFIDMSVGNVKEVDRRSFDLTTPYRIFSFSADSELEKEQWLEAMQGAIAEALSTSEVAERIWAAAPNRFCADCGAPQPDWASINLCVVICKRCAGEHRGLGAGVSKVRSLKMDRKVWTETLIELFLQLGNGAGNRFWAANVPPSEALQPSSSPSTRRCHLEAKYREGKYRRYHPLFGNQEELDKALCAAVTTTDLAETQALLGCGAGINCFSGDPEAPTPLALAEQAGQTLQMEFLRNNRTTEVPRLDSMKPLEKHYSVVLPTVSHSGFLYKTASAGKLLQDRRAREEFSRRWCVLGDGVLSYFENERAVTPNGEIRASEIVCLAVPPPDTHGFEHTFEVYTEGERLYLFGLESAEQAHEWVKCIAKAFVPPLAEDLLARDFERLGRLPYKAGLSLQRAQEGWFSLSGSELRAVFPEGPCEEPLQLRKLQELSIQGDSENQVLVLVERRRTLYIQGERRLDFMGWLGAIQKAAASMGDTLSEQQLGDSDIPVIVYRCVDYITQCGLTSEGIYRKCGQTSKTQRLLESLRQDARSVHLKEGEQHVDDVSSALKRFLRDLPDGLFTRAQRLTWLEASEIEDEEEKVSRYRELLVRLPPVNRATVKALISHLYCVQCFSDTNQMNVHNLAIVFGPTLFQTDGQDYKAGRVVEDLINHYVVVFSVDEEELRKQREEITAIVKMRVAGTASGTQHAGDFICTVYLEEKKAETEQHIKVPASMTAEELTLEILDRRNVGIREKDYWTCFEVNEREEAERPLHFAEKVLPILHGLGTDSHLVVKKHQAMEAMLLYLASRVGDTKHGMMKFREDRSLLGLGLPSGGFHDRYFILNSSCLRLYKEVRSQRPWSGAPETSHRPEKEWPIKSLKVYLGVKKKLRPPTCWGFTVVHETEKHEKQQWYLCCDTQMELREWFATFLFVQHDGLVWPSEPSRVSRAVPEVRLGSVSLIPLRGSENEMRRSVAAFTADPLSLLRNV
UniProt P48444: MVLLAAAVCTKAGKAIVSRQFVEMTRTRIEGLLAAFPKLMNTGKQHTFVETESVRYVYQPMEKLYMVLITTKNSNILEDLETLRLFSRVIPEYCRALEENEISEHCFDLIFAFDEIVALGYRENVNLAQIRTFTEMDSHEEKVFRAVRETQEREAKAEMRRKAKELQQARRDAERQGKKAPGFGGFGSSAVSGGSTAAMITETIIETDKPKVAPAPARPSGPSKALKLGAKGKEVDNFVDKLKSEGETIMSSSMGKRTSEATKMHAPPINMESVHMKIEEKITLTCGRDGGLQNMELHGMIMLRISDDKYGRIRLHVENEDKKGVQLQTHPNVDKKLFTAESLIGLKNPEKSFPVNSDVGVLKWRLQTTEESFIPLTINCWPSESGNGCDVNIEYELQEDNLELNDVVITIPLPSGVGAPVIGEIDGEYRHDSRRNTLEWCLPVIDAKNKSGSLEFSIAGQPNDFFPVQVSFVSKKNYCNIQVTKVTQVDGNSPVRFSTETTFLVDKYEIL
UniProt Q9UPW5: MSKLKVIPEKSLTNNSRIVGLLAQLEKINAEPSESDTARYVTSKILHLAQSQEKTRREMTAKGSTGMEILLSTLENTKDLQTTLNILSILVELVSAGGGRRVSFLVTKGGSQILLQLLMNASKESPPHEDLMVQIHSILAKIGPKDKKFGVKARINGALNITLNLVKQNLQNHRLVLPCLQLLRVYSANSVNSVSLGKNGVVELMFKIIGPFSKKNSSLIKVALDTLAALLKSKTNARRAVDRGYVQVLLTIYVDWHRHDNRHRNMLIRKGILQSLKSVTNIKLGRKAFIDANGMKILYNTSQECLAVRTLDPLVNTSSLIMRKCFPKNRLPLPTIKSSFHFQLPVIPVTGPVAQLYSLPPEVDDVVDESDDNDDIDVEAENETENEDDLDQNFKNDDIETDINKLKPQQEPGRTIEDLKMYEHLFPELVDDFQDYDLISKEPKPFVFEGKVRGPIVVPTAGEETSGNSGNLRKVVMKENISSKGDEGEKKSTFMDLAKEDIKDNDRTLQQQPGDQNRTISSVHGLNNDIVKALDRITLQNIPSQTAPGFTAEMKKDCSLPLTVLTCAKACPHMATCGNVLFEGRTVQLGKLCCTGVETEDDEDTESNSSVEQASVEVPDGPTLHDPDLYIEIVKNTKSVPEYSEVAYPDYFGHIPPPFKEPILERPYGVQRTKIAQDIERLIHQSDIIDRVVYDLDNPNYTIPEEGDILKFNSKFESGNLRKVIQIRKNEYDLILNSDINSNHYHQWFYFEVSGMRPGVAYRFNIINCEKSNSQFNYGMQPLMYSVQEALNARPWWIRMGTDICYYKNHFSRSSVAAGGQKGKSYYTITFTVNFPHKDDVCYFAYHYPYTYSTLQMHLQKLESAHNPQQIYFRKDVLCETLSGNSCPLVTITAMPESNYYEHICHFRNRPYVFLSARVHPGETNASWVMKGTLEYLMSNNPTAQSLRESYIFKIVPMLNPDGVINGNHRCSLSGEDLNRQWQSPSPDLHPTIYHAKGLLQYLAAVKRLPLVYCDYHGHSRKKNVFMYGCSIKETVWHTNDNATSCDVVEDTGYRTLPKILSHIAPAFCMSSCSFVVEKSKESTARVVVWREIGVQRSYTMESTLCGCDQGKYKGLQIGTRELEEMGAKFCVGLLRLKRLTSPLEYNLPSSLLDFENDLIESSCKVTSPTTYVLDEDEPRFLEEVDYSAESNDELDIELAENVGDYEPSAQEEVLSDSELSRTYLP
UniProt O95081: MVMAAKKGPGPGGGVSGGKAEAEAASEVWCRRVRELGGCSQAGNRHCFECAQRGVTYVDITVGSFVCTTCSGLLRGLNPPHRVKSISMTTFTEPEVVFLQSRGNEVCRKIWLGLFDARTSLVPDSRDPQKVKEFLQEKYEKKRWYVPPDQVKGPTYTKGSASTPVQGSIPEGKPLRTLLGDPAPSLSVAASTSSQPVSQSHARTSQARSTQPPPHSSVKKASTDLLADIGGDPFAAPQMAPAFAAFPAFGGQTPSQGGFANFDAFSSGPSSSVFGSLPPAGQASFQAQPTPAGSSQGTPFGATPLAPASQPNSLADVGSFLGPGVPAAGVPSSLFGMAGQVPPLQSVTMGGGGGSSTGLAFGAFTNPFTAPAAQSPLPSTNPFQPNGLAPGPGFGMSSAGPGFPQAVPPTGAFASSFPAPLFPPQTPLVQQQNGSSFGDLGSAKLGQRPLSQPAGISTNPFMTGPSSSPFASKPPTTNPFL
UniProt P08758: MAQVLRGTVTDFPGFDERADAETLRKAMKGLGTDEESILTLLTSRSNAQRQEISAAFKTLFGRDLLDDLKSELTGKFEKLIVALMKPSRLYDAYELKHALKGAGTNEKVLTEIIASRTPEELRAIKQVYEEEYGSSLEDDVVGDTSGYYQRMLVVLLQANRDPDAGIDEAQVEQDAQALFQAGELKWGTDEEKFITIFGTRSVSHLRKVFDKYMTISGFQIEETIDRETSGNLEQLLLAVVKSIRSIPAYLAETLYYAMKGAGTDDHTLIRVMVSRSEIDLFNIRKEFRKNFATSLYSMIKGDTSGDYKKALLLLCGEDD
UniProt P24666: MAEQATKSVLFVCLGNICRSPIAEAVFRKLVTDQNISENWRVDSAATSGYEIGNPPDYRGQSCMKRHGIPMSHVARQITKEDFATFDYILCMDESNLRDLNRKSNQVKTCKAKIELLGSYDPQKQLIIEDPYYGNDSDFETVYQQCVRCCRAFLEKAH
UniProt Q9H7C9: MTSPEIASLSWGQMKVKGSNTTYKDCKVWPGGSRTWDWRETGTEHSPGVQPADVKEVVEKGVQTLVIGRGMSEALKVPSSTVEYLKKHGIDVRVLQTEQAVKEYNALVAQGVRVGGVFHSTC
UniProt P14621: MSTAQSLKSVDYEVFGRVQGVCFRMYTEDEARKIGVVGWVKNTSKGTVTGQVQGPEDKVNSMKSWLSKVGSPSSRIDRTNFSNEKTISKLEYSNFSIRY
UniProt P09525: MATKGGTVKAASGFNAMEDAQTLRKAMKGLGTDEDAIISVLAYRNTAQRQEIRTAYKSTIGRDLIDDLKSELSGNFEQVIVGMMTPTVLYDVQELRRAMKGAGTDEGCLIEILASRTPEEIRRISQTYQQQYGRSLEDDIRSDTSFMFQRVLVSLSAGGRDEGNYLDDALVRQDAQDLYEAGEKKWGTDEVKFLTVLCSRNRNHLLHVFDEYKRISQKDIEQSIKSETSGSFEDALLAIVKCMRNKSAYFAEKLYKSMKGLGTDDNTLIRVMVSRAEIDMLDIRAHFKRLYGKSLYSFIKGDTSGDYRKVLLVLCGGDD

compound: Nc1nc2c(ncn2[C@@H]2O[C@H](COP(=O)(O)OP(=O)(O)OP(=O)(O)O)[C@@H](O)[C@H]2O)c(=O)[nH]1; experiment: dose-dependent thermal stabilisation call (2D-TPP, DLPTP, 10% FDR) (binary (1 = stabilised)); higher = stabilised by the compound; details: system: Jurkat gel-filtered lysate; concentration range 1-500 µM
Experimental: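 2D thermal proteome profiling in gel-filtered Jurkat E6.1 lysate (2 mg/ml) treated with NaGTP (0, 1, 10, 100, 500 uM) for 10 min at room temperature, then heated 3 min at one of 12 temperatures (42-63.9 C). Soluble protein was quantified by TMT10 MS. The value is the DLPTP call of the paper: dose-dependent thermal stabilisation over all temperatures at 10% FDR (F-test of a dose-response against a flat model); one experiment, one call per tested protein.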

dose-dependent thermal stabilisation call, inactive:
AKAP8L (UniProt Q9ULX6) 0
ACTR6 (UniProt Q9GZN1) 0
ABLIM1 (UniProt O14639) 0
AHSA1 (UniProt O95433) 0
ACBD3 (UniProt Q9H3P7) 0
ABI1 (UniProt Q8IZP0) 0
ANKRA2 (UniProt Q9H9E1) 0
ANP32A (UniProt P39687) 0
AHCYL2 (UniProt Q96HN2) 0
ARHGAP11A (UniProt Q6P4F7) 0
AIM1 (UniProt Q9Y4K1) 0
ALDOC (UniProt P09972) 0
ARAP1 (UniProt Q96P48) 0
ARCN1 (UniProt P48444) 0
AKNA (UniProt Q7Z591) 0
AFF4 (UniProt Q9UHB7) 0
ALDH18A1 (UniProt P54886) 0
AKR1B1 (UniProt P15121) 0
AMN1 (UniProt Q8IY45) 0
ACY1 (UniProt Q03154) 0
ADAR (UniProt P55265) 0
AGTPBP1 (UniProt Q9UPW5) 0
ANAPC5 (UniProt Q9UJX4) 0
AGFG2 (UniProt O95081) 0
ANXA5 (UniProt P08758) 0
ALMS1 (UniProt Q8TCU4) 0
APBB1IP (UniProt Q7Z5R6) 0
ADRM1 (UniProt Q16186) 0
ANAPC4 (UniProt Q9UJX5) 0
ANKRD12 (UniProt Q6UB98) 0
ACP1 (UniProt P24666) 0
AAGAB (UniProt Q6PD74) 0
ARHGAP21 (UniProt Q5T5U3) 0
AHSG (UniProt P02765) 0
ADPRHL2 (UniProt Q9NX46) 0
AAMDC (UniProt Q9H7C9) 0
ACYP2 (UniProt P14621) 0
ANKRD17 (UniProt O75179) 0

Random excerpt: 3 records from the list.
dose-dependent thermal stabilisation call, inactive:
ARAP1 (UniProt Q96P48) 0
AHCYL2 (UniProt Q96HN2) 0
ACYP2 (UniProt P14621) 0

Next part.

dose-dependent thermal stabilisation call, active:
ANXA4 (UniProt P09525) 1
ACTN4 (UniProt O43707) 1
